# Laboratory results reported in PubChem BioAssay AID2685 (National Center for Advancing Translational Sciences (NCATS), 2010).
# Some of the results follow. Shown are side measurements of this screen, not its main read-out; they come without a call. The list favours compounds with an active or inconclusive main result. Words in brackets tell the shape of the fitted curve; partial curves, single points and poor fits give uncertain potencies.
# Assay: qHTS Assay for Lipid Storage Modulators in Drosophila S3 Cells;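 on cell number change: cells counted by Cell Tracker Red CMTPX staining in the red channel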
# Conditions: BODIPY lipid droplet fluorescence, 18-24 h; for cell number change: measured here: cell count max response, cells fed with added oleic acid
# In short: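 Drosophila S3 cells loaded with oleic acid (400 uM, as added) and compounds at several concentrations; lipid droplets imaged by 488-nm laser-scanning cytometry, 500–530 nm intensity and object ratio to cell channel. Percent activity normalized to 20 uM Triacsin C.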
# [1] = measured here: cell number channel AC50, cells fed with added oleic acid
# [2] = measured here: lipid fluorescence (Fed channel) AC50, cells fed with added oleic acid
Compound,cell number change [%],AC50 [1],AC50 [2]
CCOC(=O)c1cc(NC(=O)Nc2ccccc2OC)c(C)nc1C,13.5,"0.092 µM [rising, full curve, poor fit]","0.259 µM [rising, partial curve, poor fit]"
CCC(=O)c1ccc(OCC(=O)OCC(=O)N2c3ccccc3NC(=O)C2(C)C)cc1,-39,"4.61 µM [falling, partial curve, poor fit]","1.16 µM [falling, partial curve, poor fit]"
COc1ccc(S(=O)(=O)N2CCN(C(=O)NCc3ccc(OC)c(OC)c3)CC2)cc1,17.1,–,"29.1 µM [rising, single point]"
CC1=C(C(=O)OCc2ccccc2)C(c2ccccc2[N+](=O)[O-])NC(=O)N1C (centres undefined),–,–,"6.51 µM [rising, single point]"
O=C(CSc1ncccc1-c1nc2ccccc2[nH]1)N1CCN(c2ccccc2F)CC1,–,–,"0.82 µM [rising, partial curve]"
CC(C)(C)C(=O)O/N=C1\CCS(=O)(=O)c2sccc21,-44.5,"13 µM [falling, partial curve, poor fit]",–
CN(c1ccc(C(=O)Nc2cccnc2)cc1)S(=O)(=O)c1ccc(Cl)cc1,-19.8,–,"1.64 µM [falling, partial curve, poor fit]"
COc1ccccc1C(=O)Nc1nnc(-c2ccccc2)s1,-17.5,–,"2.06 µM [falling, single point]"
CCN(CC)C(=O)CCSc1nnc(-c2ccncc2)o1,5.73,–,"0.651 µM [falling, full curve, poor fit]"
CN1CCN(S(=O)(=O)c2cccc(C(=O)Nc3sccc3C#N)c2)CC1,4.15,–,–
COc1ccc(C2C(C#N)=C(N)OC(C(C)(C)C)=C2C#N)cc1OC (centres undefined),-5.02,–,"0.231 µM [rising, full curve, poor fit]"
CCOC(=O)CN1NC2(CCCC(C)C2)NC1=S (centres undefined),-146,"29.1 µM [falling, single point]","0.731 µM [falling, single point]"
Cc1ccc(N(C(=O)c2snc(C(N)=O)c2N)C(C(=O)NCC2CCCO2)c2ccc(C)o2)c(C)c1 (centres undefined),-33.3,"0.731 µM [falling, full curve, poor fit]","29.1 µM [rising, single point]"
CC1CCCC(NC(=O)c2cccc(S(=O)(=O)NCc3ccccc3)c2)C1C (centres undefined),-22.5,–,"0.0058 µM [falling, full curve, poor fit]"
COc1ccc(CCNC(=O)CCCCCNc2nc(=S)[nH]c3ccccc23)cc1OC,-37.3,"13 µM [falling, single point]","7.31 µM [falling, partial curve]"
O=C1Nc2ccc(Cl)cc2C(C#CC2CC2)(C(F)(F)F)O1 (centres undefined),–,–,"0.082 µM [falling, full curve, poor fit]"
CCOc1ccccc1NC(=O)NNS(=O)(=O)c1cc(C)ccc1C,–,–,"29.1 µM [rising, single point]"
O=S(=O)(NCc1csc(-c2ccccc2)n1)c1ccc(Cl)s1,-21.1,–,"10.3 µM [falling, partial curve, poor fit]"
CC1CCN(C(=O)CN(c2ccc3c(c2)OCCO3)S(=O)(=O)c2ccccc2)CC1,18.9,–,"6.51 µM [rising, single point]"
COc1cccc(-n2c(SCC(=O)N3CCOCC3)nnc2-c2c[nH]c3ccccc23)c1,-20.1,–,"20.6 µM [rising, single point]"
CC(C)C(=O)NC(c1ccc(Cl)cc1Cl)c1ccc2cccnc2c1O (centres undefined),-40.5,"16.4 µM [falling, partial curve]",–
O=C1NC2(CCCCC2)C(=O)N1CCN1C(=O)c2ccccc2C1=O,-35.3,"0.146 µM [rising, full curve, poor fit]",–
O=C1CCC([N+](=O)[O-])C(c2ccc(Cl)cc2Cl)N1 (centres undefined),-33.6,"0.411 µM [falling, full curve, poor fit]","23.1 µM [falling, partial curve]"
COc1cccc(C(=O)OCC(=O)c2c[nH]c3ccccc23)c1OC,38.5,"20.6 µM [rising, partial curve]","0.651 µM [falling, full curve]"
COc1ccc(Nc2nc(N/N=C/c3ccc(N(C)C)cc3)nc(C)c2[N+](=O)[O-])cc1,-34.7,"16.4 µM [falling, single point]","1.16 µM [rising, partial curve]"
CS(=O)(=O)c1ccc(C(=O)OCc2nnc(-c3ccc(Cl)cc3)o2)cc1[N+](=O)[O-],-31,"0.0206 µM [falling, full curve, poor fit]","0.058 µM [falling, full curve, poor fit]"
Cc1nc2ccc(Br)cc2c(-c2ccccc2)c1C(=O)O,-50.6,"7.31 µM [falling, partial curve]","25.9 µM [falling, single point]"

# An excerpt from above in order of formula weight, low to high.
Compound,cell number change [%],AC50 [1],AC50 [2]
COc1ccccc1C(=O)Nc1nnc(-c2ccccc2)s1,-17.5,–,"2.06 µM [falling, single point]"
CN1CCN(S(=O)(=O)c2cccc(C(=O)Nc3sccc3C#N)c2)CC1,4.15,–,–
COc1cccc(-n2c(SCC(=O)N3CCOCC3)nnc2-c2c[nH]c3ccccc23)c1,-20.1,–,"20.6 µM [rising, single point]"

# More results follow.

Compound,cell number change [%],AC50 [1],AC50 [2]
CCOc1ccc(S(=O)(=O)NCCN2CCOCC2)c2ccccc12,-11.6,–,"4.61 µM [falling, full curve, poor fit]"
O=C(CNC(=O)c1ccco1)NCC(=O)OCc1cccc(C(=O)Oc2ccccc2)c1,-106,"29.1 µM [falling, single point]","29.1 µM [falling, single point]"
CCOC(=O)N1CCN(C(=O)c2cc(OCC)c(OCC)c(OCC)c2)CC1,-38.1,"9.2 µM [falling, partial curve]","2.91 µM [falling, partial curve]"
CC(C)Oc1ccc(C2CC(=O)N(c3ccccc3)C2=O)cc1 (centres undefined),46,–,"2.06 µM [falling, partial curve]"
CCS(=O)(=O)N1CCN(S(=O)(=O)c2ccc(S(=O)(=O)NC3CC3)cc2)CC1,–,–,"29.1 µM [falling, partial curve]"
Cc1ccccc1NC(=O)C1C2CCCC1C2c1ccccc1 (centres undefined),-14.7,–,"0.651 µM [falling, full curve]"
CC1CC(NC(=O)C2(C)CC2(Cl)Cl)CC(C)(C)C1 (centres undefined),3.65,"0.366 µM [falling, full curve]","0.13 µM [falling, full curve]"
CC(C)(C)NC(=O)CSc1nc(N)cc(=O)[nH]1,-40.5,"0.184 µM [falling, full curve, poor fit]",–
CCN1C(=O)Cc2cc(S(=O)(=O)NCCc3ccccc3)ccc21,20,–,–
O=C(Nc1ccccc1)Nc1ccc(F)c([N+](=O)[O-])c1,-22,–,"0.082 µM [rising, full curve, poor fit]"
CN1C(=O)C2(C(C#N)=C(N)N(c3cc(Cl)cc(Cl)c3)C3=C2C(=O)CCC3)c2ccccc21 (centres undefined),-32.6,"0.82 µM [falling, full curve, poor fit]","29.1 µM [falling, single point]"
CCOc1cccc2c1OC1(C)CC2NC(=O)N1c1cccc(C(=O)NCc2ccccn2)c1 (centres undefined),6.8,–,–
N#Cc1ccc(S(=O)(=O)N2CCN(CC(=O)Nc3ccccc3C(=O)NC3CC3)CC2)cc1,4.39,–,–
CCOC(=O)c1c(NC(=O)CSc2nnc(-c3c[nH]c4ccccc34)n2CC)sc2c1CCCC2,-6.64,–,"2.31 µM [rising, partial curve]"
COc1ccc(S(=O)(=O)Nc2ccccn2)cc1C,5.1,–,"0.291 µM [rising, full curve, poor fit]"
Nc1cc([N+](=O)[O-])ccc1N1C(=O)CCCC1=O,12.8,–,"6.51 µM [falling, single point]"
O=C(COc1ccccc1Cl)Nc1nnc(S(=O)(=O)N2CCCCCC2)s1,19.8,–,"25.9 µM [falling, single point]"
O=C(CCN1C(=O)/C(=C/c2ccc(F)cc2)SC1=S)NCCc1ccc(O)cc1,9.9,–,"0.13 µM [rising, single point]"
Cn1c(CCC(=O)OCC(=O)NCC(F)(F)F)nc(=O)c2ccccc21,-33.9,"2.59 µM [falling, full curve]","3.66 µM [falling, full curve]"
CC(C)OP(=O)(OC(C)C)C(O)c1cccc([N+](=O)[O-])c1 (centres undefined),-2.69,–,–
Cn1c(=O)cc(SCC(=O)N2CCCC2)c2ccc(Cl)cc21,-17.9,–,"32.6 µM [falling, partial curve, poor fit]"
O=C(NNC(=O)c1cccc(-n2cccc2)c1)c1ccccc1,2.88,–,"1.84 µM [rising, partial curve, poor fit]"
Cc1c(S(=O)(=O)N2CCCC(C(=O)O)C2)cnn1C (centres undefined),–,"6.51 µM [falling, single point]",–
COc1cc(C(CC(=O)Nc2ccccn2)N2Cc3ccccc3C2=O)cc(OC)c1OC (centres undefined),-34,–,"0.00517 µM [falling, full curve, poor fit]"
CNC(=O)C1(C(F)(F)F)C/C(=C\CCO)CCCO1 (centres undefined),23.6,"0.206 µM [rising, full curve, poor fit]","5.8 µM [rising, full curve]"
O=C(CN1CC[n+]2c(-c3cccs3)csc21)c1ccc(Br)cc1,33.5,"10.3 µM [rising, partial curve, poor fit]",–
CCCCn1c(N)c(S(=O)(=O)c2ccc(C)cc2)c2nc3ccccc3nc21,-40.8,"20.6 µM [falling, single point]","3.66 µM [rising, single point]"

# Full records from above:
# COc1ccc(S(=O)(=O)Nc2ccccn2)cc1C as listed: cell number change [%]: 5.1; AC50 [2]: 0.291 µM [rising, full curve, poor fit]
# COc1cc(C(CC(=O)Nc2ccccn2)N2Cc3ccccc3C2=O)cc(OC)c1OC (centres undefined) as listed: cell number change [%]: -34; AC50 [2]: 0.00517 µM [falling, full curve, poor fit]
